# Laboratory results taken from patent US10730857B2, “Benzocyanine compounds” (Pierce Biotechnology, Inc., priority 2011, dated 2020).
# Key:
# [1] = Absorbance/emission spectral properties and fluorescence intensity of the dyes; format: physicochemical; conditions: on average
# Procedure: Emission/excitation profiles for inventive and commercial compounds was determined by reconstituting the compounds in DMF at 10 mg/ml and then diluting in PBS buffer pH 7.2 to 10 μg/ml.
# [2] = test system: goat anti-rabbit (GAR) antibodies; test: Labeling efficiency (degree of labeling) of goat anti-rabbit antibody
# [3] = test system: goat anti-mouse (GAM) antibodies; test: Labeling efficiency (degree of labeling) of goat anti-mouse antibody
# [4] = GAM-2X molar excess, mole dye to mole protein
# [5] = GAM, another set of experiments
# [6] = GAR, * Company B conjugates precipitated above 10×
compound,measurement,setting,value
COCC[N+]1=C(/C=C/C=C/C=C2/N(CCCCCC(=O)ON3C(=O)CCC3=O)c3ccc4c(S(=O)(=O)[O-])cc(S(=O)(=O)O)cc4c3C2(C)C)C(C)(CCCS(=O)(=O)O)c2c1ccc1c(S(=O)(=O)O)cc(S(=O)(=O)O)cc21 (stereo not shown) [679 Compound 1/1-NHS],intensity lower compared to Company A Compound,[1],20%
Cy5.5 [reference compound],degree of labeling,"[2]; GAR-4X molar excess, two values where printed",2.2
same,degree of labeling,[3]; [4],1.6
same,degree of labeling,"[3]; GAM-4X molar excess, two values where printed",2.6
COCCOCCOCCOCC[N+]1=C(/C=C/C=C/C=C2/N(CCOCCOCCOCCOCCC(=O)ON3C(=O)CCC3=O)c3ccc4c(S(=O)(=O)[O-])cc(S(=O)(=O)O)cc4c3C2(C)CCOCCOCCOCCOC)C(C)(CCOCCOCCOCCOC)c2c1ccc1c(S(=O)(=O)O)cc(S(=O)(=O)O)cc21 (stereo not shown) [Compound V08-15173],intensity lower compared to Company A Compound,[1],20%
same,Mole Dye/Mole Protein Ratio @ 5 X,[2]; GAR,4.6
same,Mole Dye/Mole Protein Ratio @ 2.5 X,[3]; [5],2.5
same,Mole Dye/Mole Protein Ratio @ 5 X,[3]; [5],4.9
same,Mole Dye/Mole Protein Ratio @ 7.5 X,[3]; [5],7.1
same,Mole Dye/Mole Protein Ratio @ 10 X,[3]; [5],8.9
"COCC[N+]1=C(/C=C/C=C/C=C2/N(CCCCCC(=O)O)c3ccc4c(S(=O)(=O)[O-])cc(S(=O)(=O)[O-])cc4c3C2(C)C)C(C)(CCCS(=O)(=O)[O-])c2c1ccc1c(S(=O)(=O)[O-])cc(S(=O)(=O)[O-])cc21.[Na+].[Na+].[Na+].[Na+] (stereo not shown) [679 Compound 1, 6-((E)-2-((2E,4E)-5-(3-(2-methoxyethyl)-1-methyl-6,8-disulfonato-1-(3-sulfonatopropyl)-1H-benzo[e]indol-3-ium-2-yl)penta-2,4-dien-1-ylidene)-1,1-dimethyl-6,8-disulfonato-1H-benzo[e]indol-3(2H)-yl)hexanoate]",Mole Dye/Mole Protein Ratio @ 5 X,[2]; GAR,4.8
same,Mole Dye/Mole Protein Ratio @ 15 X,[2]; [6],10.6
same,Mole Dye/Mole Protein Ratio @ 25 X,[2]; [6],14.4
same,degree of labeling,[3]; [4],2.0
same,Mole Dye/Mole Protein Ratio @ 2.5 X,[3]; [5],1.8
same,Mole Dye/Mole Protein Ratio @ 5 X,[3]; [5],4.1
same,Mole Dye/Mole Protein Ratio @ 7.5 X,[3]; [5],6.6
same,Mole Dye/Mole Protein Ratio @ 10 X,[3]; [5],8.5
same,Mole Dye/Mole Protein Ratio @ 15 X,[3]; [5],12.9
